In the supplement of paper PMC4604168 (melanoma cell lines):
This is one part of the list. Repeats are few or missing, and single values can be far off.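 The apoptosis fraction was the count of cleaved-PARP antibody-stained nuclei relative to all DNA-stained nuclei, imaged in 1,536-well plates. Screening doses were set so most cells survived, and baseline and induced cleaved-PARP levels vary greatly across cell lines.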

Test system: CBRC017 (line from a melanoma biopsy)
Test: cleaved PARP positive nuclei fraction relative to DMSO control; melanoma cells; higher = more apoptosis
Conditions: library dose: low library concentration; 72 h

| Compound | cleaved PARP positive nuclei fraction [%] |
| --- | --- |
| O=C(Nc1cc(C(F)(F)F)cc(C(F)(F)F)c1)c1cc(Cl)ccc1O + CO[C@@H]1[C@H](N(C)C(=O)c2ccccc2)C[C@H]2O[C@]1(C)n1c3ccccc3c3c4c(c5c6ccccc6n2c5c31)C(=O)NC4 [Midostaurin] (first compound 0.016 µM, partner dose 0.08 µM) | 114 |
| N#CC[C@H](C1CCCC1)n1cc(-c2ncnc3[nH]ccc23)cn1 [ruxolitinib] + Cc1ccc(NC(=O)c2cccc(N(C)C)c2)cc1NC(=O)c1ccc(O)cc1 [ZM336372] (first compound 1 µM, partner dose 2 µM) | 531 |
| N#CC[C@H](C1CCCC1)n1cc(-c2ncnc3[nH]ccc23)cn1 [ruxolitinib] + CC1(C)NC(=O)N(c2ccc([N+](=O)[O-])c(C(F)(F)F)c2)C1=O [nilutamide] (first compound 1 µM, partner dose 1 µM) | 87.8 |
| CC[C@]1(O)C[C@H]2CN(CCc3c([nH]c4ccccc34)[C@@](C(=O)OC)(c3cc4c(cc3OC)N(C=O)[C@H]3[C@@](O)(C(=O)OC)[C@H](OC(C)=O)[C@]5(CC)C=CCN6CC[C@]43[C@@H]65)C2)C1 [vincristine] + O=C(Nc1cccc(Cl)c1)Nc1ncc(CCNc2ncnc3ccsc23)s1 [SNS314] (first compound 0.0001 µM, partner dose 0.0008 µM) | 143 |
| Cc1cn(-c2cc(NC(=O)c3ccc(C)c(Nc4nccc(-c5cccnc5)n4)c3)cc(C(F)(F)F)c2)cn1 [nilotinib] + CC(C)(C)c1cnc(CSc2cnc(NC(=O)C3CCNCC3)s2)o1 [SNS-032] (first compound 0.2 µM, partner dose 0.01 µM) | 83.6 |
| COc1cc([C@@H]2c3cc4c(cc3[C@@H](O[C@@H]3O[C@@H]5CO[C@@H](C)O[C@H]5[C@H](O)[C@H]3O)[C@H]3COC(=O)[C@H]23)OCO4)cc(OC)c1O [etoposide] + NC(=O)Nc1cc(-c2cccc(F)c2)sc1C(=O)N[C@H]1CCCNC1 [AZD7762] (first compound 0.02 µM, partner dose 0.02 µM) | 91.7 |
| Cc1cc(Nc2cc(N3CCN(C)CC3)nc(Sc3ccc(NC(=O)C4CC4)cc3)n2)n[nH]1 [Tozasertib] + Cn1cncc1[C@@](N)(c1ccc(Cl)cc1)c1ccc2c(c1)c(-c1cccc(Cl)c1)cc(=O)n2C [tipifarnib] (first compound 0.006 µM, partner dose 0.01 µM) | 89.6 |
| Cc1ccc(Nc2nccc(N(C)c3ccc4c(C)n(C)nc4c3)n2)cc1S(N)(=O)=O [Pazopanib] + Cn1cncc1[C@@](N)(c1ccc(Cl)cc1)c1ccc2c(c1)c(-c1cccc(Cl)c1)cc(=O)n2C [tipifarnib] (first compound 0.4 µM, partner dose 0.01 µM) | 84.6 |
| Cc1cc(Nc2cc(N3CCN(C)CC3)nc(Sc3ccc(NC(=O)C4CC4)cc3)n2)n[nH]1 [Tozasertib] + Cc1ccc(NC(=O)c2cccc(N(C)C)c2)cc1NC(=O)c1ccc(O)cc1 [ZM336372] (first compound 0.006 µM, partner dose 2 µM) | 102 |
| CC[C@]1(O)C[C@H]2CN(CCc3c([nH]c4ccccc34)[C@@](C(=O)OC)(c3cc4c(cc3OC)N(C=O)[C@H]3[C@@](O)(C(=O)OC)[C@H](OC(C)=O)[C@]5(CC)C=CCN6CC[C@]43[C@@H]65)C2)C1 [vincristine] + CC1(C)NC(=O)N(c2ccc([N+](=O)[O-])c(C(F)(F)F)c2)C1=O [nilutamide] (first compound 0.0001 µM, partner dose 1 µM) | 146 |
| N#CC[C@H](C1CCCC1)n1cc(-c2ncnc3[nH]ccc23)cn1 [ruxolitinib] + CO[C@@H]1[C@H](N(C)C(=O)c2ccccc2)C[C@H]2O[C@]1(C)n1c3ccccc3c3c4c(c5c6ccccc6n2c5c31)C(=O)NC4 [Midostaurin] (first compound 1 µM, partner dose 0.08 µM) | 97.3 |
| CCCCCCCCCCCCCCCCCCOP(=O)([O-])OC1CC[N+](C)(C)CC1 [Perifosine] + COc1cc2c(Oc3ccc4[nH]c(C)cc4c3F)ncnc2cc1OCCCN1CCCC1 [cediranib] (first compound 0.4 µM, partner dose 0.4 µM) | 88 |
| N#CC[C@H](C1CCCC1)n1cc(-c2ncnc3[nH]ccc23)cn1 [ruxolitinib] + COc1cc2c(Oc3ccc4[nH]c(C)cc4c3F)ncnc2cc1OCCCN1CCCC1 [cediranib] (first compound 1 µM, partner dose 0.4 µM) | 106 |
| O=C(/C=C/c1cccnc1)NCCCCC1CCN(C(=O)c2ccccc2)CC1 + O=C(O)c1ccc(-c2c[nH]c3ncc(-c4ccccc4)cc23)cc1C1CCCC1 [GSK650394] (first compound 0.01 µM, partner dose 0.16 µM) | 441 |
| Cc1cc(Nc2cc(N3CCN(C)CC3)nc(Sc3ccc(NC(=O)C4CC4)cc3)n2)n[nH]1 [Tozasertib] + NCC(=O)Nc1ccc(-n2nc(C(F)(F)F)cc2-c2ccc3c(ccc4ccccc43)c2)cc1 [OSU03012] (first compound 0.006 µM, partner dose 1 µM) | 274 |
| Cc1cn(-c2cc(NC(=O)c3ccc(C)c(Nc4nccc(-c5cccnc5)n4)c3)cc(C(F)(F)F)c2)cn1 [nilotinib] + CO[C@@H]1[C@H](N(C)C(=O)c2ccccc2)C[C@H]2O[C@]1(C)n1c3ccccc3c3c4c(c5c6ccccc6n2c5c31)C(=O)NC4 [Midostaurin] (first compound 0.2 µM, partner dose 0.08 µM) | 83.1 |
| Cc1ccc(Nc2nccc(N(C)c3ccc4c(C)n(C)nc4c3)n2)cc1S(N)(=O)=O [Pazopanib] + CN(NC(=O)CC(=O)NN(C)C(=S)c1ccccc1)C(=S)c1ccccc1 [STA4783] (first compound 0.4 µM, partner dose 0.006 µM) | 188 |
| COc1cc([C@@H]2c3cc4c(cc3[C@@H](O[C@@H]3O[C@@H]5CO[C@@H](C)O[C@H]5[C@H](O)[C@H]3O)[C@H]3COC(=O)[C@H]23)OCO4)cc(OC)c1O [etoposide] + Cc1ccc(NC(=O)c2cccc(N(C)C)c2)cc1NC(=O)c1ccc(O)cc1 [ZM336372] (first compound 0.02 µM, partner dose 2 µM) | 94 |
| O=C(/C=C/c1cccnc1)NCCCCC1CCN(C(=O)c2ccccc2)CC1 + CN(NC(=O)CC(=O)NN(C)C(=S)c1ccccc1)C(=S)c1ccccc1 [STA4783] (first compound 0.01 µM, partner dose 0.006 µM) | 981 |

Some of the entries so far, field by field:
Cc1cc(Nc2cc(N3CCN(C)CC3)nc(Sc3ccc(NC(=O)C4CC4)cc3)n2)n[nH]1 [Tozasertib] + Cn1cncc1[C@@](N)(c1ccc(Cl)cc1)c1ccc2c(c1)c(-c1cccc(Cl)c1)cc(=O)n2C [tipifarnib] (first compound 0.006 µM, partner dose 0.01 µM)
  cleaved PARP positive nuclei fraction [%]: 89.6
N#CC[C@H](C1CCCC1)n1cc(-c2ncnc3[nH]ccc23)cn1 [ruxolitinib] + COc1cc2c(Oc3ccc4[nH]c(C)cc4c3F)ncnc2cc1OCCCN1CCCC1 [cediranib] (first compound 1 µM, partner dose 0.4 µM)
  cleaved PARP positive nuclei fraction [%]: 106
